Assay results reported in PubChem BioAssay AID493014 (National Center for Advancing Translational Sciences (NCATS), 2011).
The campaign covered roughly 340,000 compounds. About 170 (0.05%) were called active. Inconclusive results, whose numbers are uncertain, are shown with a selection of clear calls. The call rests on the fitted dose curve; in most records, active means well fitted inhibition curve with a large enough effect in the signal ratio, with a control signal flat (not every such curve was filed as active); inconclusive means small, poorly fitted or top-dose-only effect, or effect the other way, or a change in a side signal; inactive means flat fitted curve, though single readings scatter; the % refers to the signal ratio. Potencies of inconclusive entries are doubtful fits and often do not repeat.

Assay: qHTS Assay to Find Inhibitors of Chronic Active B-Cell Receptor Signaling;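 on activity change, negative = inhibition: plate controls were basal doxycycline-induced cells for no effect and cells given 10 µM MG132 for full effect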
Details: ABC-DLBCL IkBa-CBG/CBR reporter, luminescence ratio (green luciferase fused to IkBa over red control in TMD8 lymphoma cells), 4 h; activity change, negative = inhibition: at 46.1 µM (top of the series) unless noted
Method in brief: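 TMD8 human ABC-DLBCL cells with doxycycline-inducible IκBα–green luciferase fusion and unfused red luciferase, in 0.5% FBS medium; compounds up to 46 uM, 4 h at 37C. Green/red luminescence ratio, filter-overlap corrected, fitted to concentration-response curves.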
Potency means the concentration at half of the fitted maximal effect.

| Compound | activity change, negative = inhibition | Potency |
| --- | --- | --- |
| CCn1cc(C(=O)OCC(=O)OC2CC(C)CCC2C(C)C)c(=O)c2ccc(C)nc21 (configuration not stated) | inactive: 15.5% | – |
| Nc1nc(SCc2ccccc2)c2[nH]cnc2n1 | – | inconclusive: 17.8 µM [falling, partial curve, poor fit] |
| COc1ccc(C(=O)NCCn2cc(SCC(=O)Nc3ccc(C)cc3)c3ccccc32)cc1 | inconclusive: 5.66% | – |
| Cc1ccc(C(=O)Nc2ccc(N3CCOCC3)cc2N2CCOCC2)cc1 | inactive: -6.54% | – |
| O=C(Nc1nnc(C2CCCO2)s1)c1cccs1 (configuration not stated) | – | inconclusive: 29.1 µM [falling, single point] |
| CC1CCC(NC(=O)CCS(=O)(=O)c2ccc3c(c2)CC(C)N3C(=O)C2CC2)CC1 (configuration not stated) | inconclusive: 3.57% | – |
| CN(C(=O)Nc1cnccc1C(F)(F)F)C1CCCCC1 | inconclusive: -1.91% | – |
| CCOC(=O)CN(C(=O)CNC(=O)c1cccs1)C(C(=O)NC1CCCC1)c1ccncc1 (configuration not stated) | inconclusive: 8.5% | – |
| O=C(O)c1cccnc1SCCc1ccccc1 | inconclusive: 25.7% | – |
| COc1ccc(-c2nnc(SCC(=O)Nc3ccccc3OC)o2)cc1 | – | inconclusive: 23.1 µM [falling, partial curve] |
| c1ccc(-c2cn3c(n2)-c2ccccc2C3)cc1 | – | inconclusive: 20.6 µM [falling, single point] |
| c1ccc(CC2=NCCN2)cc1 | inactive: -3.62% | – |
| COCCOC(=O)c1c(NC(=O)CSc2cccc[n+]2[O-])sc(C(N)=O)c1C | – | inconclusive: 35.5 µM [falling, single point] |
| CC(C)(Oc1ccc(CCNC(=O)c2ccc(Cl)cc2)cc1)C(=O)O | inconclusive: 10.5% | – |
| Cc1cc(NCc2ccccn2)n2ncc(-c3ccccc3)c2n1 | inconclusive: 4.12% | – |
| Cc1c(Cc2ccccc2)sc(N)c1C(N)=O | inconclusive: 1.04% | – |
| CCC(=O)c1ccc(O)c(CC=C(C)C)c1 | inconclusive: -5.35% | – |
| c1ccc(-c2nc(C3CCCCC3)c3ccccc3n2)cc1 | – | inconclusive: 29.1 µM [falling, single point] |
| O=C(O)C1CCCN1C(=O)c1cncc(Br)c1 (configuration not stated) | inconclusive: 2.23% | – |
| Cc1ccc(NC(=O)C(Cc2ccccc2)n2cccc2)cc1 (configuration not stated) | inconclusive: 12.4% | – |
| O=C(NC1CCCCC1)N1CCc2[nH]c3ccccc3c2C1 | – | inconclusive: 17.8 µM [falling, single point] |

Entries of single compounds, quoted from the list.
CC1CCC(NC(=O)CCS(=O)(=O)c2ccc3c(c2)CC(C)N3C(=O)C2CC2)CC1 (configuration not stated) is listed as activity change, negative = inhibition: inconclusive: 3.57%
COc1ccc(-c2nnc(SCC(=O)Nc3ccccc3OC)o2)cc1 is listed as Potency: inconclusive: 23.1 µM [falling, partial curve]

The listing continues.

| Compound | activity change, negative = inhibition | Potency |
| --- | --- | --- |
| Cc1ccc(-c2noc(CN(C(=O)c3ccc4c(c3)OCO4)C(C)C)n2)cc1 | inconclusive: -13.4% | – |
| COc1ccc(CCNC(=O)C/C(C)=N/NC(=O)c2cnccn2)cc1 | – | inconclusive: 11.2 µM [falling, partial curve, poor fit] |
| O=C(Nc1cc(S(=O)(=O)N2CCCCC2)ccc1Oc1ccccc1)C1=COCCO1 | inactive: -1.88% | – |
| CC(=O)COc1ccc2oc(=O)cc(-c3cc4ccccc4o3)c2c1 | inconclusive: -13.4% | – |
| CCNC(=O)COC(=O)c1csc2c1CCCC2 | inconclusive: 11% | – |
| COc1cc(-c2nc(-c3ccccc3)c(-c3cc([N+](=O)[O-])ccc3C)[nH]2)cc(OC)c1OC | inconclusive: 23.6% | – |
| O=C(Nc1ccccc1SCC1CSc2nc3ccccc3c(=O)n21)c1cccc(Cl)c1 (configuration not stated) | inconclusive: 15.2% | – |
| O=C1OCC/C1=C\OCCCO/C=C1\CCOC1=O | inactive: 2.18% | – |
| CC(/C=C1\SC(=S)N(CCC(=O)Nc2nc(C)cs2)C1=O)=C\c1ccccc1 | inactive: -0.388% | – |
| O=C(c1ccc(Br)s1)N1CCN(S(=O)(=O)c2ccccc2)CC1 | inconclusive: 0.311% | – |
| Cc1ccc(-c2nc(-c3ccncc3)no2)c(C)c1 | inconclusive: 4.37% | – |
| Cc1ccc2nc(C)c3c(c2c1)SCC3 | inconclusive: 4.59% | – |
| CCOC(=O)c1nnc(-c2ccccc2)nc1Oc1ccc(Cl)cc1 | – | inconclusive: 20.6 µM [falling, partial curve] |
| COc1ccccc1-c1cc2nc(C)c(CCC(=O)NCc3ccc(F)cc3)c(C)n2n1 | – | inconclusive: 35.5 µM [falling, partial curve] |
| Cc1ccc(NC(=O)Nc2nc3ccccc3s2)cc1NC(=O)Nc1nc2ccccc2s1 | inconclusive: -1.18% | – |
| COc1ccc(NC(=O)COC(=O)CCCC2=NS(=O)(=O)c3ccccc3N2)cc1Cl | inconclusive: -3% | – |
| COc1ccc(NC(=S)N(C(C)C)C2CCN(C(C)C)CC2)cc1Cl | inactive: 2.4% | – |
| Cc1cc(C(=O)N[C@H](c2ccccc2)[C@@]2(C)C[C@@H]2[C@@H](C)C(=O)Nc2ccc3ccccc3c2)no1 | inactive: -1.04% | – |
| O=S(=O)(c1c(F)cccc1F)N1CCCC2CCCCC21 (configuration not stated) | inactive: -0.0592% | – |
| O=C(CCC1CCCCC1)Nc1ccc(C(=O)c2ccncc2)cc1 | inactive: -1.18% | – |
| O=C(NC(=S)Nc1ccccc1Br)c1cccnc1 | inconclusive: -0.304% | – |

| Compound | activity change, negative = inhibition | Potency |
| --- | --- | --- |
| Cc1cc(N2C(=O)C(O)=C(C(=O)c3cc4ccccc4o3)C2c2ccc(Cl)cc2)no1 (configuration not stated) | inactive: 9.41% | – |
| Cc1c(N2C(=O)C3C4C=CC(C4)C3C2=O)c(=O)n(-c2ccccc2)n1C (configuration not stated) | inconclusive: 10.3% | – |
| CC(=O)c1cccc(Nc2ncnc3c2cnn3C)c1 | inconclusive: -2.4% | – |
| CCCN(CC(=O)Nc1ccc(C(N)=O)cc1)CC(=O)Nc1ccccc1C | – | inconclusive: 1.41 µM [falling, partial curve] |
| CCOC(=O)Nc1ccc2c(c1)N(C(=O)CCN1CCN3CCCC3C1)c1ccccc1CC2 (configuration not stated) | inconclusive: 28.2% | – |
| Cc1ccc(C)n1-n1cnc2sc(-c3ccccc3)cc2c1=O | – | inconclusive: 20.6 µM [falling, single point] |
| Cc1ccc(C2=NN(C3=NN=C(N)Cc4ncnn43)C(O)(C(F)(F)F)C2)cc1 (configuration not stated) | inconclusive: 4.17% | – |
| S=C(NC1CCCCC1)N(CCc1ccccc1)CCc1ccccc1 | inactive: 8.43% | – |
| CCc1nnc(NC(=O)CCn2cnc3ccccc3c2=O)s1 | inconclusive: -18.9% | – |
| CCOC(=O)CC1=C(C(=O)OCC)C(c2cccnc2)C(C#N)=C(N)O1 (configuration not stated) | inconclusive: -2.28% | – |
| C[C@@]12CCC=C[C@H]1[C@H](c1ccc3ccccc3c1Br)N(Cc1ccccc1)C2=O | inconclusive: -9.55% | – |
| Cc1cc(C)c(NC(=O)C2=COCCO2)c(C)c1 | inactive: 0.266% | – |
| CCCC(=O)Oc1ccccc1C1SCc2cc(C)c(C)cc2CS1 | – | inconclusive: 6.31 µM [falling, single point] |
| COc1ccc(C[C@H]2c3cc(O)c(OC)cc3CC[N+]2(C)[O-])cc1O (some centres not stated) | inconclusive: -18.9% | – |
| Cc1oc2c(c1C(=O)N1CCC(C)CC1)C(=O)c1ccccc1C2=O | inactive: -0.941% | – |
| O=C(c1ccc(S(=O)(=O)N2CCOCC2)cc1)N1CCN(c2ccccn2)CC1 | – | inconclusive: 11.2 µM [falling, partial curve] |
| CCCCCC(=O)N1CC2(CC)CN(C(=O)CCCCC)CC(CC)(C1)C2=O | inactive: 7.53% | – |
| NC(=S)N=Nc1c(O)n(Cc2ccc(Br)cc2)c2ccccc12 | – | inconclusive: 4.61 µM [falling, partial curve, poor fit] |
| CCSc1nc(=S)n(-c2ccccc2)c(C)c1C(C)=O | inconclusive: -0.0626% | – |
| Cc1ccsc1C(=O)Nc1nccs1 | inconclusive: 19.9% | – |
| O=C(NCCC1CCCCN1S(=O)(=O)c1ccc(Cl)cc1)C(=O)NCc1ccncc1 (configuration not stated) | inconclusive: 24.5% | – |

| Compound | activity change, negative = inhibition | Potency |
| --- | --- | --- |
| CCOc1ccc(CCNC(=O)Cc2ccc(NC3=NC4CS(=O)(=O)CC4S3)cc2)cc1 (configuration not stated) | inconclusive: -0.945% | – |
| C/C(=N\Nc1ccc(F)cc1F)c1ccc(Br)s1 | inconclusive: 7.68% | – |
| CCCCCc1c(O)nc(SCCN(CC)CC)[nH]c1=O | inconclusive: -14.3% | – |
| COc1ccc(C2C=C(C)Nc3nc4ccccc4n32)cc1 (configuration not stated) | inconclusive: -16.4% | – |
| Cc1cc(C(=O)CN2C(=O)C(=O)N(C3CCCC3)C2=O)c(C)n1CCc1ccccc1 | – | inconclusive: 20.6 µM [rising, partial curve, poor fit] |
| O=C1C=C(c2cccc(Cl)c2O)C[C@@H](c2ccc(F)cc2)C1 | inconclusive: 7.2% | – |
| CN(C)c1ccc(/C=C2\CCCCC2=O)cc1 | inactive: -0.824% | – |
| CC(C)CCn1nc(C(=O)OC(C)C(=O)NC(N)=O)c2ccccc2c1=O (configuration not stated) | inconclusive: -0.408% | – |
| Cc1ccc(NC(=O)c2snc3ccc(Cl)cc23)cc1C | – | inconclusive: 3.26 µM [rising, full curve, poor fit] |
| Cc1cc(NC(=O)c2cccs2)ncc1NC(=O)c1cccc(F)c1 | – | inconclusive: 31.6 µM [falling, single point] |
| CCOC(=O)c1cnc2c(Cl)c(Cl)ccc2c1NCCN1CCOCC1 | inconclusive: 0.903% | – |
| Cc1cc(Cl)ccc1OCC(=O)OCC(=O)N(CC(C)C)c1c(N)n(Cc2ccccc2)c(=O)[nH]c1=O | – | inconclusive: 16.4 µM [falling, single point] |
| COc1cc(NS(=O)(=O)c2c(C)oc3c(F)c(F)c(F)c(F)c23)cc(OC)c1OC | inactive: -0.829% | – |
| COc1cc(/C=C/C(=O)O)ccc1OS(=O)(=O)c1ccc(C)cc1 | inactive: 6.57% | – |
| N#CCC(=O)Nc1ccc(C(=O)OCC(=O)N(Cc2ccccc2)C2CCS(=O)(=O)C2)cc1 (configuration not stated) | – | inconclusive: 35.5 µM [falling, single point] |
| Cc1ccc(NC(=O)C2CC(=O)NC(N3CCc4ccccc43)=N2)cc1 (configuration not stated) | inconclusive: 13.2% | – |
| Cc1cccc(N2CC(C)Cn3c2nc2c3c(=O)[nH]c(=O)n2C)c1 (configuration not stated) | inactive: -8% | – |
| COCCn1ccc2c(OCC(=O)NCc3ccc(C)cc3)cccc2c1=O | – | inconclusive: 16.4 µM [falling, partial curve, poor fit] |
| CCOC(=O)c1c(C)nc2ccccc2c1C | – | inconclusive: 16.4 µM [falling, single point] |

Compounds above that have a CF3 group (two):

| Compound | activity change, negative = inhibition | Potency |
| --- | --- | --- |
| CN(C(=O)Nc1cnccc1C(F)(F)F)C1CCCCC1 | inconclusive: -1.91% | – |
| Cc1ccc(C2=NN(C3=NN=C(N)Cc4ncnn43)C(O)(C(F)(F)F)C2)cc1 (configuration not stated) | inconclusive: 4.17% | – |
